Experimental data published in the supplement of paper PMC8728848.
The list shows a part of the results.

Columns and labels:
Assay in all cases: glycan array binding signal (z-score within array); higher = stronger binding
Settings in all cases: glycan notation: IUPAC condensed, linker removed
[1] = target: Fuc(a1-3)[Gal3S(b1-4)]GlcNAc
Outline: (§1)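 Columns mapping to the same glycan were averaged after glycan names were converted to IUPAC-condensed notation. The data come from 3228 arrays in the Consortium for Functional Glycomics database, limited to those with an available protein sequence. Binding is reported as a within-array Z-score averaged across arrays of one protein sequence and across linkers.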

[2] = target: Fuc(a1-3)[Gal3S(b1-4)]GlcNAc6S
Outline: as §1

[3] = target: Fuc(a1-3)[GalNAc(b1-4)]GlcNAc
Outline: as §1

[4] = target: Fuc(a1-3)[GalNAc(b1-4)]GlcNAc6S
Outline: as §1

Fuc(a1-4)GlcNAc = target: Fuc(a1-4)GlcNAc
Outline: as §1

Fuc(b1-3)GlcNAc = target: Fuc(b1-3)GlcNAc
Outline: as §1

Gal(a1-2)Gal = target: Gal(a1-2)Gal
Outline: as §1

Gal(a1-3)Gal = target: Gal(a1-3)Gal
Outline: as §1

Gal(a1-3)Gal(b1-3)GlcNAc = target: Gal(a1-3)Gal(b1-3)GlcNAc
Outline: as §1

[5] = target: Gal(a1-3)Gal(b1-3)GlcNAc(b1-2)Man
Outline: as §1

[6] = target: Gal(a1-3)Gal(b1-3)GlcNAc(b1-2)Man(a1-3)[Gal(a1-3)Gal(b1-3)GlcNAc(b1-2)Man(a1-6)]Man(b1-4)GlcNAc(b1-4)GlcNAc
Outline: as §1

[7] = target: Gal(a1-3)Gal(b1-3)GlcNAc(b1-3)GalNAc
Outline: as §1

[8] = target: Gal(a1-3)Gal(b1-3)GlcNAc(b1-6)GalNAc
Outline: as §1

[9] = target: Gal(a1-3)Gal(b1-3)[Fuc(a1-4)]GlcNAc(b1-2)Man(a1-3)[Gal(a1-3)Gal(b1-3)[Fuc(a1-4)]GlcNAc(b1-2)Man(a1-6)]Man(b1-4)GlcNAc(b1-4)GlcNAc
Outline: as §1

Gal(a1-3)Gal(b1-4)Glc = target: Gal(a1-3)Gal(b1-4)Glc
Outline: as §1

Gal(a1-3)Gal(b1-4)GlcNAc = target: Gal(a1-3)Gal(b1-4)GlcNAc
Outline: as §1

[10] = target: Gal(a1-3)Gal(b1-4)GlcNAc(b1-2)Man
Outline: as §1

[11] = target: Gal(a1-3)Gal(b1-4)GlcNAc(b1-2)Man(a1-3)[Gal(a1-3)Gal(b1-4)GlcNAc(b1-2)Man(a1-6)]Man(b1-4)GlcNAc(b1-4)GlcNAc
Outline: as §1

[12] = target: Gal(a1-3)Gal(b1-4)GlcNAc(b1-3)GalNAc
Outline: as §1

[13] = target: Gal(a1-3)Gal(b1-4)GlcNAc(b1-6)GalNAc
Outline: as §1

[14] = target: Gal(a1-3)Gal(b1-4)[Fuc(a1-3)]GlcNAc
Outline: as §1

[15] = target: Gal(a1-3)Gal(b1-4)[Fuc(a1-3)]GlcNAc(b1-2)Man(a1-3)[Gal(a1-3)Gal(b1-4)[Fuc(a1-3)]GlcNAc(b1-2)Man(a1-6)]Man(b1-4)GlcNAc(b1-4)GlcNAc
Outline: as §1

Gal(a1-3)GalNAc = target: Gal(a1-3)GalNAc
Outline: as §1

[16] = target: Gal(a1-3)[Gal(a1-4)]Gal(b1-4)GlcNAc
Outline: as §1

[17] = target: Gal(a1-4)Gal(b1-3)GlcNAc(b1-2)Man(a1-3)[Gal(a1-4)Gal(b1-3)GlcNAc(b1-2)Man(a1-6)]Man(b1-4)GlcNAc(b1-4)GlcNAc
Outline: as §1

Gal(a1-4)Gal(b1-4)Glc = target: Gal(a1-4)Gal(b1-4)Glc
Outline: as §1

Gal(a1-4)Gal(b1-4)GlcNAc = target: Gal(a1-4)Gal(b1-4)GlcNAc
Outline: as §1

[18] = target: Gal(a1-4)Gal(b1-4)GlcNAc(b1-2)Man(a1-3)[Gal(a1-4)Gal(b1-4)GlcNAc(b1-2)Man(a1-6)]Man(b1-4)GlcNAc(b1-4)GlcNAc
Outline: as §1

[19] = target: Gal(a1-4)Gal(b1-4)GlcNAc(b1-3)Gal(b1-4)Glc
Outline: as §1

Gal(a1-4)GlcNAc = target: Gal(a1-4)GlcNAc
Outline: as §1

Gal(a1-6)Glc = target: Gal(a1-6)Glc
Outline: as §1

Gal(b1-2)Gal = target: Gal(b1-2)Gal
Outline: as §1

Gal(b1-3)Gal = target: Gal(b1-3)Gal
Outline: as §1

Gal(b1-3)Gal(b1-4)GlcNAc = target: Gal(b1-3)Gal(b1-4)GlcNAc
Outline: as §1

Gal(b1-3)GalNAc = target: Gal(b1-3)GalNAc
Outline: as §1

[20] = target: Gal(b1-3)GalNAc(a1-3)[Fuc(a1-2)]Gal(b1-4)Glc
Outline: as §1

[21] = target: Gal(b1-3)GalNAc(a1-3)[Fuc(a1-2)]Gal(b1-4)GlcNAc
Outline: as §1

B1: SP15308B-bot-339-22-339 (Bacteroides ovatus) (protein)
chain: NEWEDEQYEQYVSFKAPIASGSDGVTTIYVRYKDNGKVTYQLPIIVSGSTVNSQDRDIHIAVDKDTLKTLNIERFSLYRPELWYTEMEEDKYEFPETVHIPAGSCVELLNIDFNLQDIDMLEKWVLPLTIVDDGSYAYQSHPRKNYAKALLKVVPFNNYSGSYTASSMKVYTYINGKPDTNARTTDKRTGYVVDNNSIFFYAGLINEDMDKDMRKKYKINVHFKEDGTLDMKQDDPSNEMEFELIGTPTYSSTSVMDATRPYLERRYVQIMFEYDFQDFTYGGSGTEVIPIKYRVAGSMTLLRNINTQIPDEDQQIEW
[1]
  glycan array binding signal (z-score): 0.466
[2]
  glycan array binding signal (z-score): -0.343
[3]
  glycan array binding signal (z-score): 0.003
[4]
  glycan array binding signal (z-score): 0.011
Fuc(a1-4)GlcNAc
  glycan array binding signal (z-score): 2.58
Fuc(b1-3)GlcNAc
  glycan array binding signal (z-score): -0.077
Gal(a1-2)Gal
  glycan array binding signal (z-score): 0.317
Gal(a1-3)Gal
  glycan array binding signal (z-score): 0.449
Gal(a1-3)Gal(b1-3)GlcNAc
  glycan array binding signal (z-score): -0.64
[5]
  glycan array binding signal (z-score): -0.132
[6]
  glycan array binding signal (z-score): 0.713
[7]
  glycan array binding signal (z-score): -0.388
[8]
  glycan array binding signal (z-score): -0.361
[9]
  glycan array binding signal (z-score): 0.312
Gal(a1-3)Gal(b1-4)Glc
  glycan array binding signal (z-score): -0.248
Gal(a1-3)Gal(b1-4)GlcNAc
  glycan array binding signal (z-score): -0.3
[10]
  glycan array binding signal (z-score): 0.053
[11]
  glycan array binding signal (z-score): 3.88
[12]
  glycan array binding signal (z-score): -0.537
[13]
  glycan array binding signal (z-score): -0.214
[14]
  glycan array binding signal (z-score): -0.386
[15]
  glycan array binding signal (z-score): 0.303
Gal(a1-3)GalNAc
  glycan array binding signal (z-score): -0.219
[16]
  glycan array binding signal (z-score): -0.022
[17]
  glycan array binding signal (z-score): -0.198
Gal(a1-4)Gal(b1-4)Glc
  glycan array binding signal (z-score): -0.513
Gal(a1-4)Gal(b1-4)GlcNAc
  glycan array binding signal (z-score): 0.714
[18]
  glycan array binding signal (z-score): 0.987
[19]
  glycan array binding signal (z-score): -0.215
Gal(a1-4)GlcNAc
  glycan array binding signal (z-score): 0.038
Gal(a1-6)Glc
  glycan array binding signal (z-score): -0.476
Gal(b1-2)Gal
  glycan array binding signal (z-score): 0.097
Gal(b1-3)Gal
  glycan array binding signal (z-score): -0.08
Gal(b1-3)Gal(b1-4)GlcNAc
  glycan array binding signal (z-score): -0.293
Gal(b1-3)GalNAc
  glycan array binding signal (z-score): -0.35
[20]
  glycan array binding signal (z-score): -0.168
[21]
  glycan array binding signal (z-score): -0.573
